Test results published in article PMC5059733.
No constants are given. Whether binding was seen depends on the method and setting. Binding seen in cells or lysates may run through a third protein. Some binding calls cover weakened binding; strength is not graded here.

Amino acid sequences for entries named in this document (tags omitted).
UniProt O94759: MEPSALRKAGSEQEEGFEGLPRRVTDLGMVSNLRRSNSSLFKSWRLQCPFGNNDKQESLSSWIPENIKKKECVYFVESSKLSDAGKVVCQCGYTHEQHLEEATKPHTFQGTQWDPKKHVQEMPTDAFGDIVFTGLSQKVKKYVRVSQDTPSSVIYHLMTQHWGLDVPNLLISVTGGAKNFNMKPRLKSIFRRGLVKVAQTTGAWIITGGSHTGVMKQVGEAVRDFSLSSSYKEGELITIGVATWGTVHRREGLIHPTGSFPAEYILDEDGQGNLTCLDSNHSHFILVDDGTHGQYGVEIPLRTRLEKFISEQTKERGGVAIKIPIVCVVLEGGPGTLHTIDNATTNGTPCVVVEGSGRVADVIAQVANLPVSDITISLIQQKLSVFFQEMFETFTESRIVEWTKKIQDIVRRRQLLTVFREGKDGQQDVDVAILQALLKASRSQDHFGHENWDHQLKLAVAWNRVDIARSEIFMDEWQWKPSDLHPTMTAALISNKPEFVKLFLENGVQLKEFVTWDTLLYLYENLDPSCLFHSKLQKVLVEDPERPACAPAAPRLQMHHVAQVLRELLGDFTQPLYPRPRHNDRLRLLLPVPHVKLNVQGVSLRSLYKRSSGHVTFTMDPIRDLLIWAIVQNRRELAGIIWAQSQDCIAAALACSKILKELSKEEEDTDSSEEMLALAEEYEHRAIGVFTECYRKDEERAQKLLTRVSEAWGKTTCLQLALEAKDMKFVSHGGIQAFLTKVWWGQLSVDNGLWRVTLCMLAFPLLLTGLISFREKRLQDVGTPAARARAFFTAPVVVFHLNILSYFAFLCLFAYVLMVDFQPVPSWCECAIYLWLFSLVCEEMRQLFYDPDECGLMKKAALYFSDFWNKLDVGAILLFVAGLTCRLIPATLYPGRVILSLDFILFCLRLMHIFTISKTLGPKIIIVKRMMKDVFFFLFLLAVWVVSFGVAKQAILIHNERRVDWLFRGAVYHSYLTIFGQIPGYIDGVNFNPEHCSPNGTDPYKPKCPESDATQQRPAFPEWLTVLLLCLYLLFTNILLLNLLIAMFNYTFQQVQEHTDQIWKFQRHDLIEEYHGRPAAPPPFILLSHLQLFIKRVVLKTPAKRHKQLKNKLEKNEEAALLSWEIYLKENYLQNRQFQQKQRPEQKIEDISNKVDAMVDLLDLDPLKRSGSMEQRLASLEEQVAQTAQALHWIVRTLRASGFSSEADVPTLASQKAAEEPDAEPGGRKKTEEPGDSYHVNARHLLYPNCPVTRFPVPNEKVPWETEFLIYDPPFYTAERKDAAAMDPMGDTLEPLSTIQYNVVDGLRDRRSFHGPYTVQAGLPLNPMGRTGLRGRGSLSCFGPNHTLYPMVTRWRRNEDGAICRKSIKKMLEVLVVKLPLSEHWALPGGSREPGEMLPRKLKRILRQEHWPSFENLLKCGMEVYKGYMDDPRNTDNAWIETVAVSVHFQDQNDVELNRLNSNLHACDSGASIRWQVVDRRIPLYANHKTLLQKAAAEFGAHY
UniProt P14598: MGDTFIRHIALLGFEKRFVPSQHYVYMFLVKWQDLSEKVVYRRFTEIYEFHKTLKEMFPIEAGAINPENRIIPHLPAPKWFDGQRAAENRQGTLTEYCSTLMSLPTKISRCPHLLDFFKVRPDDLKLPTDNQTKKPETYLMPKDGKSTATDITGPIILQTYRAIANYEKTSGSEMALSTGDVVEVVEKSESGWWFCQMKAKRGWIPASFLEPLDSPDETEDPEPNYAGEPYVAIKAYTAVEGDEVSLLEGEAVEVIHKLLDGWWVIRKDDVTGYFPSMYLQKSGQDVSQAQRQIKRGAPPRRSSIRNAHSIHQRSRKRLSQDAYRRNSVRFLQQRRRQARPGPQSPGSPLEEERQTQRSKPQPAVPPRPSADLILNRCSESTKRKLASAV

Target: Transient receptor potential melastatin-2 (TRPM2) (human (endogenous in U937)) (UniProt O94759)
Assay: co-IP; endogenous proteins in U937 lysate; cells treated with 10, 20 or 30 mM glucose for 48 h; precipitated with anti-p47 phox or anti-TRPM2 antibody overnight at 4 °C and Protein A agarose beads; blotted with anti-p47 phox, anti-phospho-Ser345-p47 phox or anti-TRPM2

| Substance | binding |
| --- | --- |
| phosphorylated-Ser345 p47 phox (from UniProt P14598 1-390) | binds |
| p47 phox (from UniProt P14598 1-390) | binds |
